According to PubChem BioAssay AID1895 (NMMLSC, 2009):
Calls of active or inactive are those of the source. The rule behind the calls is not given here.

Molecular target: MEK5 PB1 domain binding to MEKK2 (MAP3K2) mutant PB1, human
Assay: mutant MEKK2 PB1-MEK5 interaction blockers – biochemical, bead multiplex flow cytometry, dose response (AID 1895)
Settings: Bead-based multiplex flow cytometry

EC50: inactive: > 30 µM
SMILES: Cc1c2cc(O)c(=O)cc-2oc2cc(O)c(O)cc12
